Entries after “also recorded” stand apart in the source; their conditions may differ. At least one structure is not confirmed: it was looked up by name or label, or the drawing left a doubt.
Columns and labels:
Assay type in all cases: in vivo
[1] = serum and tumor metabolite levels and body weight of xenograft mice; settings: effect of treatment
[2] = test system: NRAS Q61K-expressing HMCB cells; experiment: HMCB xenograft in nude mice; settings: single agent, normal diet
[3] = test system: BRAF V600E-expressing human melanoma A2058 cells; experiment: A2058 xenograft in nude mice; settings: single agent
[4] = test system: BRAF V600E-expressing human melanoma A375 cells; experiment: A375 xenograft in nude mice; settings: single agent

| Compound | serum levels of acetoacetate [1] | xenograft tumor growth (growth rates, sizes, masses) [2] | BRAF V600E-MEK1 binding in tumors [3] | cell proliferation rates in tumors (Ki67 IHC staining) [3] | phosphorylation of MEK1 and ERK1/2 in tumors [3] | xenograft tumor growth (growth rates, sizes, masses) ([3]; normal diet) | BRAF V600E-MEK1 binding in tumors [4] | cell proliferation rates in tumors (Ki67 IHC staining) [4] | phosphorylation of MEK1 and ERK1/2 in tumors [4] | xenograft tumor growth (growth rates, sizes, masses) ([4]; normal diet) |
| --- | --- | --- | --- | --- | --- | --- | --- | --- | --- | --- |
| CC(C)OC(=O)C(C)(C)Oc1ccc(C(=O)c2ccc(Cl)cc2)cc1 [fenofibrate] | reduced serum levels of acetoacetate | but not control mice | decreased BRAF V600E-MEK1 association | reduced cell proliferation rates | decreased phosphorylation of MEK1 and ERK1/2 | attenuated tumor growth potential | – | – | – | – |
| CC(C)n1c(/C=C/C(O)CC(O)CC(=O)O)c(-c2ccc(F)cc2)c2ccccc21 (centres unmarked) [fluvastatin] | reduced serum levels of acetoacetate; also recorded: decrease serum acetoacetate levels | – | – | – | – | – | decreased BRAF V600E-MEK1 association | reduced cell proliferation rates | decreased phosphorylation of MEK1 and ERK1/2 | effectively attenuated tumor growth potential; also recorded: reduce BRAF V600E tumor growth |

Source: patent US10792274B2, “Dehydroacetic acid (DHAA) and derivative for uses in treating cancer” (Emory University, priority 2016, dated 2020)
